Laboratory results from the supplement of paper PMC12067093, “Discovery and optimisation of a covalent ligand for TRIM25 and its application to targeted protein ubiquitination” (Chemical Science, 2025).
The list shows a part of the results.

Compound: CC1Cc2ccccc2N1C(=O)C1CCCN(C1)C(=O)CCl (mixture of isomers) [TRIM25 ligand 11 (diastereomer mixture)]
Assay: probe-labelled cysteine peptide fold change vs DMSO (competition) (log2 fold change); higher = less target engagement (more negative = stronger competition)
Conditions: 10 µM; THP-1; incubation time: 4 h
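Note: competitive chemoproteomic profiling in live THP-1 cells with an iodoacetamide desthiobiotin (IA-DTB) probe, comparing probe-labelled peptide intensities in compound-treated cells against DMSO-treated controls.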

Q: For “PTCD3_Q96EY7_260_NEHSYCTMIR (UniProt Q96EY7)”, which “probe-labelled cysteine peptide fold change” value is on record?
A: 0.0725

Q: With “PTBP3_O95758_68_KIPCDVTEAEIISLGLPFGK (UniProt O95758)” as the target, how does the “probe-labelled cysteine peptide fold change” value read?
A: 0.0362

Q: For “PSMD10_O75832_48_TALHWACSAGHTEIVEFLLQLGVPVNDK (UniProt O75832)”, which “probe-labelled cysteine peptide fold change” value is on record?
A: 0.037

Q: For “PTPMT1_Q8WUK0_81_FLCNSSQEWK (UniProt Q8WUK0)”, which “probe-labelled cysteine peptide fold change” value is on record?
A: 0.225

Q: For “PSMG2_Q969U7_168_CIPEIDDSEFCIR (UniProt Q969U7)”, which “probe-labelled cysteine peptide fold change” value is on record?
A: -0.123

Q: “PSMA4_P25789_74_LNEDMACSVAGITSDANVLTNELR (UniProt P25789)” was tested. Which “probe-labelled cysteine peptide fold change” value did it give?
A: 0.31

Q: “PSMD1_Q99460_659_YGAAMALGICCAGTGNK (UniProt Q99460)” was tested. Which “probe-labelled cysteine peptide fold change” value did it give?
A: 0.034

Q: With “PSMB8_P28062_174_GMGLSMGSMICGWDK (UniProt P28062)” as the target, how does the “probe-labelled cysteine peptide fold change” value read?
A: -0.00669

Q: How did the “probe-labelled cysteine peptide fold change” value turn out when “PSME3_P61289_92_RRLDECEEAFQGTK (UniProt P61289)” was run?
A: 0.0191

Q: “PTPA_Q15257_202_IDYGTGHEAAFAAFLCCLCK (UniProt Q15257)” was tested. Which “probe-labelled cysteine peptide fold change” value did it give?
A: 0.0687

Q: “PTPRA_P18433_668_KEEECESYTVR (UniProt P18433)” was tested. Which “probe-labelled cysteine peptide fold change” value did it give?
A: 0.138

Q: How did the “probe-labelled cysteine peptide fold change” value turn out when “PSD4_Q8NDX1_933_SHENCLDAAADDLLDLQR (UniProt Q8NDX1)” was run?
A: -0.0584

Q: For “PTPN12_Q05209_164_ISCEDEQAR (UniProt Q05209)”, which “probe-labelled cysteine peptide fold change” value is on record?
A: 0.112

Q: “PSMD11_O00231_257_YMLLCK (UniProt O00231)” was tested. Which “probe-labelled cysteine peptide fold change” value did it give?
A: 0.162

Q: With “PTPN23_Q9H3S7_65_DFEGCSVLR (UniProt Q9H3S7)” as the target, how does the “probe-labelled cysteine peptide fold change” value read?
A: -0.0994

Q: “PSMD11_O00231_202_TTANAIYCPPK (UniProt O00231)” was tested. Which “probe-labelled cysteine peptide fold change” value did it give?
A: -0.0391

Q: Which “probe-labelled cysteine peptide fold change” value does the source give for “PSTPIP2_Q9H939_65_KKPCGQSEINTLK (UniProt Q9H939)” here?
A: -0.0693

Q: How did the “probe-labelled cysteine peptide fold change” value turn out when “PTCD3_Q96EY7_139_DIAEPHIPCLMPEYFEPQIK (UniProt Q96EY7)” was run?
A: -0.296

Q: Which “probe-labelled cysteine peptide fold change” value does the source give for “PTPN23_Q9H3S7_116_SVAHEDIKYEQACILYNLGALHSMLGAMDKR (UniProt Q9H3S7)” here?
A: -0.115

Q: For “PUF60_Q9UHX1_487_NMVDPKDIDDDLEGEVTEECGK (UniProt Q9UHX1)”, which “probe-labelled cysteine peptide fold change” value is on record?
A: -0.2

Q: For “PSMG1_O95456_169_NMQITILTCR (UniProt O95456)”, which “probe-labelled cysteine peptide fold change” value is on record?
A: -0.0944

Q: Which “probe-labelled cysteine peptide fold change” value does the source give for “PTRH1_Q86Y79_72_HCAADLALAPLGDAQLVLLRPR (UniProt Q86Y79)” here?
A: 0.169

Q: With “PTGFRN_Q9P2B2_169_CTAASASPLHTHLALLWEVHR (UniProt Q9P2B2)” as the target, how does the “probe-labelled cysteine peptide fold change” value read?
A: -0.164

Q: How did the “probe-labelled cysteine peptide fold change” value turn out when “PSME4_Q14997_1267_EWESSCFVEK (UniProt Q14997)” was run?
A: -0.0479

Q: “PSMA5_P28066_76_IVEIDAHIGCAMSGLIADAK (UniProt P28066)” was tested. Which “probe-labelled cysteine peptide fold change” value did it give?
A: 0.0116

Q: For “PTER_Q96BW5_196_VLQATAHAQAQLGCPVIIHPGR (UniProt Q96BW5)”, which “probe-labelled cysteine peptide fold change” value is on record?
A: 0.172

Q: Which “probe-labelled cysteine peptide fold change” value does the source give for “PSMA4_P25789_115_YLLQYQEPIPCEQLVTALCDIK (UniProt P25789)” here?
A: 0.135

Q: Which “probe-labelled cysteine peptide fold change” value does the source give for “PTER_Q96BW5_164_CGIIGEIGCSWPLTESERK (UniProt Q96BW5)” here?
A: 0.0066

Q: “PSMA6_P60900_78_ITENIGCVMTGMTADSR (UniProt P60900)” was tested. Which “probe-labelled cysteine peptide fold change” value did it give?
A: -0.225

Q: For “PTPMT1_Q8WUK0_127+132_YQSLGQCVYVHCK (UniProt Q8WUK0)”, which “probe-labelled cysteine peptide fold change” value is on record?
A: 0.189

Q: Which “probe-labelled cysteine peptide fold change” value does the source give for “PSMB8_P28062_160_LLSNMMCQYR (UniProt P28062)” here?
A: 0.00249

Q: “PSMD2_Q13200_251_CALGVFR (UniProt Q13200)” was tested. Which “probe-labelled cysteine peptide fold change” value did it give?
A: -0.127

Q: Which “probe-labelled cysteine peptide fold change” value does the source give for “PTPRC_P08575_762_CAEYWPSMEEGTR (UniProt P08575)” here?
A: -0.0546

Q: For “PTPN12_Q05209_235_YQEHEDVPICIHCSAGCGR (UniProt Q05209)”, which “probe-labelled cysteine peptide fold change” value is on record?
A: 0.28

Q: For “PTBP3_O95758_55_RDRPPCSPSR (UniProt O95758)”, which “probe-labelled cysteine peptide fold change” value is on record?
A: 0.129

Q: For “PSMA6_P60900_115_YGYEIPVDMLCK (UniProt P60900)”, which “probe-labelled cysteine peptide fold change” value is on record?
A: -0.0584

Q: How did the “probe-labelled cysteine peptide fold change” value turn out when “PSMC5_P62195_363_GVCTEAGMYALR (UniProt P62195)” was run?
A: -0.0163

Q: How did the “probe-labelled cysteine peptide fold change” value turn out when “PTCD1_O75127_695_EADDGCALGGR (UniProt O75127)” was run?
A: -0.117

Same assay, conditions: 50 µM; THP-1; incubation time: 4 h

Q: For “PTCD3_Q96EY7_260_NEHSYCTMIR (UniProt Q96EY7)”, which “probe-labelled cysteine peptide fold change” value is on record?
A: 0.00912

Q: With “PTBP3_O95758_68_KIPCDVTEAEIISLGLPFGK (UniProt O95758)” as the target, how does the “probe-labelled cysteine peptide fold change” value read?
A: -0.0189

Q: For “PSMD10_O75832_48_TALHWACSAGHTEIVEFLLQLGVPVNDK (UniProt O75832)”, which “probe-labelled cysteine peptide fold change” value is on record?
A: 0.0505

Q: How did the “probe-labelled cysteine peptide fold change” value turn out when “PTPMT1_Q8WUK0_81_FLCNSSQEWK (UniProt Q8WUK0)” was run?
A: 0.115

Q: Which “probe-labelled cysteine peptide fold change” value does the source give for “PSMG2_Q969U7_168_CIPEIDDSEFCIR (UniProt Q969U7)” here?
A: 0.0815

Q: For “PSMA4_P25789_74_LNEDMACSVAGITSDANVLTNELR (UniProt P25789)”, which “probe-labelled cysteine peptide fold change” value is on record?
A: 0.0247

Q: Which “probe-labelled cysteine peptide fold change” value does the source give for “PSMD1_Q99460_659_YGAAMALGICCAGTGNK (UniProt Q99460)” here?
A: 0.105

Q: Which “probe-labelled cysteine peptide fold change” value does the source give for “PSMB8_P28062_174_GMGLSMGSMICGWDK (UniProt P28062)” here?
A: -0.0214

Q: “PSME3_P61289_92_RRLDECEEAFQGTK (UniProt P61289)” was tested. Which “probe-labelled cysteine peptide fold change” value did it give?
A: -0.00482

Q: How did the “probe-labelled cysteine peptide fold change” value turn out when “PTPA_Q15257_202_IDYGTGHEAAFAAFLCCLCK (UniProt Q15257)” was run?
A: 0.512

Q: How did the “probe-labelled cysteine peptide fold change” value turn out when “PTPRA_P18433_668_KEEECESYTVR (UniProt P18433)” was run?
A: 0.0888

Q: “PSD4_Q8NDX1_933_SHENCLDAAADDLLDLQR (UniProt Q8NDX1)” was tested. Which “probe-labelled cysteine peptide fold change” value did it give?
A: -0.157

Q: With “PTPN12_Q05209_164_ISCEDEQAR (UniProt Q05209)” as the target, how does the “probe-labelled cysteine peptide fold change” value read?
A: 0.071

Q: How did the “probe-labelled cysteine peptide fold change” value turn out when “PSMD11_O00231_257_YMLLCK (UniProt O00231)” was run?
A: 0.211

Q: With “PTPN23_Q9H3S7_65_DFEGCSVLR (UniProt Q9H3S7)” as the target, how does the “probe-labelled cysteine peptide fold change” value read?
A: -0.0472

Q: For “PSMD11_O00231_202_TTANAIYCPPK (UniProt O00231)”, which “probe-labelled cysteine peptide fold change” value is on record?
A: -0.0508

Q: For “PSTPIP2_Q9H939_65_KKPCGQSEINTLK (UniProt Q9H939)”, which “probe-labelled cysteine peptide fold change” value is on record?
A: -0.125

Q: Which “probe-labelled cysteine peptide fold change” value does the source give for “PTCD3_Q96EY7_139_DIAEPHIPCLMPEYFEPQIK (UniProt Q96EY7)” here?
A: -0.376

Q: For “PTPN23_Q9H3S7_116_SVAHEDIKYEQACILYNLGALHSMLGAMDKR (UniProt Q9H3S7)”, which “probe-labelled cysteine peptide fold change” value is on record?
A: -0.138

Q: How did the “probe-labelled cysteine peptide fold change” value turn out when “PUF60_Q9UHX1_487_NMVDPKDIDDDLEGEVTEECGK (UniProt Q9UHX1)” was run?
A: -0.375

Q: For “PSMG1_O95456_169_NMQITILTCR (UniProt O95456)”, which “probe-labelled cysteine peptide fold change” value is on record?
A: 0.000106

Q: “PTRH1_Q86Y79_72_HCAADLALAPLGDAQLVLLRPR (UniProt Q86Y79)” was tested. Which “probe-labelled cysteine peptide fold change” value did it give?
A: -0.126

Q: With “PTGFRN_Q9P2B2_169_CTAASASPLHTHLALLWEVHR (UniProt Q9P2B2)” as the target, how does the “probe-labelled cysteine peptide fold change” value read?
A: -0.0696

Q: With “PSME4_Q14997_1267_EWESSCFVEK (UniProt Q14997)” as the target, how does the “probe-labelled cysteine peptide fold change” value read?
A: 0.064

Q: With “PSMA5_P28066_76_IVEIDAHIGCAMSGLIADAK (UniProt P28066)” as the target, how does the “probe-labelled cysteine peptide fold change” value read?
A: -0.0441

Q: Which “probe-labelled cysteine peptide fold change” value does the source give for “PTER_Q96BW5_196_VLQATAHAQAQLGCPVIIHPGR (UniProt Q96BW5)” here?
A: 0.203

Q: For “PSMA4_P25789_115_YLLQYQEPIPCEQLVTALCDIK (UniProt P25789)”, which “probe-labelled cysteine peptide fold change” value is on record?
A: 0.195

Q: Which “probe-labelled cysteine peptide fold change” value does the source give for “PTER_Q96BW5_164_CGIIGEIGCSWPLTESERK (UniProt Q96BW5)” here?
A: -0.0414

Q: For “PSMA6_P60900_78_ITENIGCVMTGMTADSR (UniProt P60900)”, which “probe-labelled cysteine peptide fold change” value is on record?
A: -0.119

Q: “PTPMT1_Q8WUK0_127+132_YQSLGQCVYVHCK (UniProt Q8WUK0)” was tested. Which “probe-labelled cysteine peptide fold change” value did it give?
A: 0.019

Q: “PSMB8_P28062_160_LLSNMMCQYR (UniProt P28062)” was tested. Which “probe-labelled cysteine peptide fold change” value did it give?
A: -0.0625

Q: “PSMD2_Q13200_251_CALGVFR (UniProt Q13200)” was tested. Which “probe-labelled cysteine peptide fold change” value did it give?
A: 0.217

Q: For “PTPRC_P08575_762_CAEYWPSMEEGTR (UniProt P08575)”, which “probe-labelled cysteine peptide fold change” value is on record?
A: -0.192

Q: “PTPN12_Q05209_235_YQEHEDVPICIHCSAGCGR (UniProt Q05209)” was tested. Which “probe-labelled cysteine peptide fold change” value did it give?
A: -0.07

Q: “PTBP3_O95758_55_RDRPPCSPSR (UniProt O95758)” was tested. Which “probe-labelled cysteine peptide fold change” value did it give?
A: 0.254

Q: How did the “probe-labelled cysteine peptide fold change” value turn out when “PSMA6_P60900_115_YGYEIPVDMLCK (UniProt P60900)” was run?
A: -0.105

Q: For “PSMC5_P62195_363_GVCTEAGMYALR (UniProt P62195)”, which “probe-labelled cysteine peptide fold change” value is on record?
A: 0.0167

Q: How did the “probe-labelled cysteine peptide fold change” value turn out when “PTCD1_O75127_695_EADDGCALGGR (UniProt O75127)” was run?
A: -0.18
